Screening data

From PubChem BioAssay record AID504749 (NCATS, 2011).

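A panel of P. falciparum strains inside erythrocytes is exposed to compounds for three days, then a DNA-binding dye reports the amount of parasite DNA. Each compound was titrated across a series from about 0.000037 to 29 µM. The number is the fitted AC50, the concentration giving a half-maximal change in signal; a lower value means higher potency, whether the curve shows a decrease or an increase. Calls follow the curve class and fit quality: every row here is inconclusive, covering signal-raising curves and weak, poorly fitted, partial or highest-dose-only inhibition curves.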

Values are in nM. Every entry below has the call inconclusive. These entries are mostly ones the record files as inconclusive; other results of the assay are not listed here. Potencies fitted to partial, single-point or poorly fitting curves are rough. Some entries filed as inconclusive have a full curve.

With CN(C)[C@@H]1C(=O)C(C(N)=O)=C(O)[C@@]2(O)C(=O)C3=C(O)c4c(O)cccc4[C@@](C)(O)[C@H]3[C@H](O)[C@@H]12 [P94_40] the assay gave Potency 17782 nM (inhibitor, single point). CN(C)[C@@H]1C(=O)C(C(N)=O)=C(O)[C@@]2(O)C(=O)C3=C(O)c4c(O)cccc4[C@@](C)(O)[C@H]3[C@H](O)[C@@H]12 [DFO2036] gave Potency 14125 nM (inhibitor, partial curve, poor fit). For CN(C)[C@@H]1C(=O)C(C(N)=O)=C(O)[C@@]2(O)C(=O)C3=C(O)c4c(O)cccc4[C@@](C)(O)[C@H]3[C@H](O)[C@@H]12 [PAD] the result was Potency 12589 nM (inhibitor, single point). CN(C)[C@@H]1C(=O)C(C(N)=O)=C(O)[C@@]2(O)C(=O)C3=C(O)c4c(O)cccc4[C@@](C)(O)[C@H]3[C@H](O)[C@@H]12 [CP237] gave Potency 5012 nM (inhibitor, partial curve). CN(C)[C@@H]1C(=O)C(C(N)=O)=C(O)[C@@]2(O)C(=O)C3=C(O)c4c(O)cccc4[C@@](C)(O)[C@H]3[C@H](O)[C@@H]12 [CP203] gave Potency 19011 nM (inhibitor, single point). With CN(C)[C@@H]1C(=O)C(C(N)=O)=C(O)[C@@]2(O)C(=O)C3=C(O)c4c(O)cccc4[C@@](C)(O)[C@H]3[C@H](O)[C@@H]12 [3D7] the assay gave Potency 3981 nM (inhibitor, full curve). Result for CN(C)[C@@H]1C(=O)C(C(N)=O)=C(O)[C@@]2(O)C(=O)C3=C(O)c4c(O)cccc4[C@@](C)(O)[C@H]3[C@H](O)[C@@H]12 [CP262] was Potency 1510 nM (inhibitor, single point).

With CN(C)[C@@H]1C(=O)C(C(N)=O)=C(O)[C@@]2(O)C(=O)C3=C(O)c4c(O)cccc4[C@@](C)(O)[C@H]3[C@H](O)[C@@H]12 [C2A] the assay gave Potency 11220 nM (inhibitor, partial curve, poor fit). Result for CN(C)[C@@H]1C(=O)C(C(N)=O)=C(O)[C@@]2(O)C(=O)C3=C(O)c4c(O)cccc4[C@@](C)(O)[C@H]3[C@H](O)[C@@H]12 [CP252] was Potency 17782 nM (inhibitor, single point). CN(C)[C@@H]1C(=O)C(C(N)=O)=C(O)[C@@]2(O)C(=O)C3=C(O)c4c(O)cccc4[C@@](C)(O)[C@H]3[C@H](O)[C@@H]12 [GB4] read Potency 19011 nM (inhibitor, single point). For CN(C)[C@@H]1C(=O)C(C(N)=O)=C(O)[C@@]2(O)C(=O)C3=C(O)c4c(O)cccc4[C@@](C)(O)[C@H]3[C@H](O)[C@@H]12 [N140] the result was Potency 10000 nM (inhibitor, partial curve). Result for CN(C)[C@@H]1C(=O)C(C(N)=O)=C(O)[C@@]2(O)C(=O)C3=C(O)c4c(O)cccc4[C@@](C)(O)[C@H]3[C@H](O)[C@@H]12 [CP256] was Potency 11220 nM (inhibitor, single point). Result for CN(C)[C@@H]1C(=O)C(C(N)=O)=C(O)[C@@]2(O)C(=O)C3=C(O)c4c(O)cccc4[C@@](C)(O)[C@H]3[C@H](O)[C@@H]12 [AS120] was Potency 14125 nM (inhibitor, single point). With CN(C)[C@@H]1C(=O)C(C(N)=O)=C(O)[C@@]2(O)C(=O)C3=C(O)c4c(O)cccc4[C@@](C)(O)[C@H]3[C@H](O)[C@@H]12 [CP297] the assay gave Potency 4.8 nM (inhibitor, partial curve, poor fit).

With CN(C)[C@@H]1C(=O)C(C(N)=O)=C(O)[C@@]2(O)C(=O)C3=C(O)c4c(O)cccc4[C@@](C)(O)[C@H]3[C@H](O)[C@@H]12 [P93_24] the assay gave Potency 10000 nM (inhibitor, single point). CN(C)[C@@H]1C(=O)C(C(N)=O)=C(O)[C@@]2(O)C(=O)C3=C(O)c4c(O)cccc4[C@@](C)(O)[C@H]3[C@H](O)[C@@H]12 [ICS] gave Potency 2818 nM (inhibitor, full curve). CN(C)[C@@H]1C(=O)C(C(N)=O)=C(O)[C@@]2(O)C(=O)C3=C(O)c4c(O)cccc4[C@@](C)(O)[C@H]3[C@H](O)[C@@H]12 [CP335] gave Potency 19011 nM (inhibitor, single point). For CN(C)[C@@H]1C(=O)C(C(N)=O)=C(O)[C@@]2(O)C(=O)C3=C(O)c4c(O)cccc4[C@@](C)(O)[C@H]3[C@H](O)[C@@H]12 [7G8] the result was Potency 5012 nM (inhibitor, partial curve). For CN(C)[C@@H]1C(=O)C(C(N)=O)=C(O)[C@@]2(O)C(=O)C3=C(O)c4c(O)cccc4[C@@](C)(O)[C@H]3[C@H](O)[C@@H]12 [CP286] the result was Potency 11220 nM (inhibitor, partial curve). CN(C)[C@@H]1C(=O)C(C(N)=O)=C(O)[C@@]2(O)C(=O)C3=C(O)c4c(O)cccc4[C@@](C)(O)[C@H]3[C@H](O)[C@@H]12 [DIV30] gave Potency 4256 nM (inhibitor, single point). CN(C)[C@@H]1C(=O)C(C(N)=O)=C(O)[C@@]2(O)C(=O)C3=C(O)c4c(O)cccc4[C@@](C)(O)[C@H]3[C@H](O)[C@@H]12 [CP215] read Potency 4256 nM (inhibitor, single point).

CN(C)[C@@H]1C(=O)C(C(N)=O)=C(O)[C@@]2(O)C(=O)C3=C(O)c4c(O)cccc4[C@@](C)(O)[C@H]3[C@H](O)[C@@H]12 [CP260] gave Potency 1122 nM (inhibitor, full curve).

2 of the entries, repeated:

| Compound | condition | Potency (nM) | curve as filed |
|---|---|---|---|
| `CN(C)[C@@H]1C(=O)C(C(N)=O)=C(O)[C@@]2(O)C(=O)C3=C(O)c4c(O)cccc4[C@@](C)(O)[C@H]3[C@H](O)[C@@H]12` | CP256 | 11220 | inhibitor, single point |
| `CN(C)[C@@H]1C(=O)C(C(N)=O)=C(O)[C@@]2(O)C(=O)C3=C(O)c4c(O)cccc4[C@@](C)(O)[C@H]3[C@H](O)[C@@H]12` | CP260 | 1122 | inhibitor, full curve |